Results are given in words; binding and its absence hold for the method and conditions named. Binding seen in cells or lysates may run through a third protein. A yes stands for co-enrichment or nearness to the bait. Other partners may have been found. Where a sequence is shown, tags or fusion partners need not be part of it.

By UniProt entry, the sequences of proteins in these tests, tags left out. Residues count along the entry.
UniProt O95793, residues 82-577: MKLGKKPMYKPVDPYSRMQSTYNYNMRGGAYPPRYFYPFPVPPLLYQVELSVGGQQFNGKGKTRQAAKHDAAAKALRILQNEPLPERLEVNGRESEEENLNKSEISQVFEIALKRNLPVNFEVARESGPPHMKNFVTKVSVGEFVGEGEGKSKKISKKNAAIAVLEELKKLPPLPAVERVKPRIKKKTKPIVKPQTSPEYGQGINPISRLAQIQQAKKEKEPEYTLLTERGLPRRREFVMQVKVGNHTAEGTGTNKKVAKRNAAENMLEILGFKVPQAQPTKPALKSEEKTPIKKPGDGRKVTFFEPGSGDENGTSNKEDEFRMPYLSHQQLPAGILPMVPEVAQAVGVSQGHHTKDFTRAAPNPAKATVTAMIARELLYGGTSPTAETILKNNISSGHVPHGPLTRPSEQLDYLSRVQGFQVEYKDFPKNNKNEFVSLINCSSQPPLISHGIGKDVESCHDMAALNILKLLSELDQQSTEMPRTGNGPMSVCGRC

The text below walks through data of article PMC3486646.

B1: Putative RNA-binding protein Luc7-like 2 (protein, UniProt Q9Y383 1-392)
chain: MSAQAQMRAMLDQLMGTSRDGDTTRQRIKFSDDRVCKSHLLNCCPHDVLSGTRMDLGECLKVHDLALRADYEIASKEQDFFFELDAMDHLQSFIADCDRRTEVAKKRLAETQEEISAEVAAKAERVHELNEEIGKLLAKVEQLGAEGNVEESQKVMDEVEKARAKKREAEEVYRNSMPASSFQQQKLRVCEVCSAYLGLHDNDRRLADHFGGKLHLGFIEIREKLEELKRVVAEKQEKRNQERLKRREEREREEREKLRRSRSHSKNPKRSRSREHRRHRSRSMSRERKRRTRSKSREKRHRHRSRSSSRSRSRSHQRSRHSSRDRSRERSKRRSSKERFRDQDLASCDRDRSSRDRSPRDRDRKDKKRSYESANGRSEDRRSSEEREAGEI
B2: Upf1 (Up-frameshift protein 1) (protein, UniProt Q92900 1-1129)
chain: MSVEAYGPSSQTLTFLDTEEAELLGADTQGSEFEFTDFTLPSQTQTPPGGPGGPGGGGAGGPGGAGAGAAAGQLDAQVGPEGILQNGAVDDSVAKTSQLLAELNFEEDEEDTYYTKDLPIHACSYCGIHDPACVVYCNTSKKWFCNGRGNTSGSHIVNHLVRAKCKEVTLHKDGPLGETVLECYNCGCRNVFLLGFIPAKADSVVVLLCRQPCASQSSLKDINWDSSQWQPLIQDRCFLSWLVKIPSEQEQLRARQITAQQINKLEELWKENPSATLEDLEKPGVDEEPQHVLLRYEDAYQYQNIFGPLVKLEADYDKKLKESQTQDNITVRWDLGLNKKRIAYFTLPKTDSGNEDLVIIWLRDMRLMQGDEICLRYKGDLAPLWKGIGHVIKVPDNYGDEIAIELRSSVGAPVEVTHNFQVDFVWKSTSFDRMQSALKTFAVDETSVSGYIYHKLLGHEVEDVIIKCQLPKRFTAQGLPDLNHSQVYAVKTVLQRPLSLIQGPPGTGKTVTSATIVYHLARQGNGPVLVCAPSNIAVDQLTEKIHQTGLKVVRLCAKSREAIDSPVSFLALHNQIRNMDSMPELQKLQQLKDETGELSSADEKRYRALKRTAERELLMNADVICCTCVGAGDPRLAKMQFRSILIDESTQATEPECMVPVVLGAKQLILVGDHCQLGPVVMCKKAAKAGLSQSLFERLVVLGIRPIRLQVQYRMHPALSAFPSNIFYEGSLQNGVTAADRVKKGFDFQWPQPDKPMFFYVTQGQEEIASSGTSYLNRTEAANVEKITTKLLKAGAKPDQIGIITPYEGQRSYLVQYMQFSGSLHTKLYQEVEIASVDAFQGREKDFIILSCVRANEHQGIGFLNDPRRLNVALTRARYGVIIVGNPKALSKQPLWNHLLNYYKEQKVLVEGPLNNLRESLMQFSKPRKLVNTINPGARFMTTAMYDAREAIIPGSVYDRSSQGRPSSMYFQTHDQIGMISAGPSHVAAMNIPIPFNLVMPPMPPPGYFGQANGPAAGRGTPKGKTGRGGRQKNRFGLPGPSQTNLPNSQASQDVASQPFSQGALTQGYISMSQPSQMSQPGLSQPELSQDSYLGDEFKSQIDVALSQDSTYQGERAYQHGGVTGLSQY
B3: T-complex protein 1 subunit beta (protein, UniProt P78371 1-535)
chain: MASLSLAPVNIFKAGADEERAETARLTSFIGAIAIGDLVKSTLGPKGMDKILLSSGRDASLMVTNDGATILKNIGVDNPAAKVLVDMSRVQDDEVGDGTTSVTVLAAELLREAESLIAKKIHPQTIIAGWREATKAAREALLSSAVDHGSDEVKFRQDLMNIAGTTLSSKLLTHHKDHFTKLAVEAVLRLKGSGNLEAIHIIKKLGGSLADSYLDEGFLLDKKIGVNQPKRIENAKILIANTGMDTDKIKIFGSRVRVDSTAKVAEIEHAEKEKMKEKVERILKHGINCFINRQLIYNYPEQLFGAAGVMAIEHADFAGVERLALVTGGEIASTFDHPELVKLGSCKLIEEVMIGEDKLIHFSGVALGEACTIVLRGATQQILDEAERSLHDALCVLAQTVKDSRTVYGGGCSEMLMAHAVTQLANRTPGKEAVAMESYAKALRMLPTIIADNAGYDSADLVAQLRAAHSEGNTTAGLDMREGTIGDMAILGITESFQVKRQVLLSAAEAAEVILRVDNIIKAAPRKRVPDHHPC
B4: Signal recognition particle receptor subunit beta (protein, UniProt Q9Y5M8 1-271)
chain: MASADSRRVADGGGAGGTFQPYLDTLRQELQQTDPTLLSVVVAVLAVLLTLVFWKLIRSRRSSQRAVLLVGLCDSGKTLLFVRLLTGLYRDTQTSITDSCAVYRVNNNRGNSLTLIDLPGHESLRLQFLERFKSSARAIVFVVDSAAFQREVKDVAEFLYQVLIDSMGLKNTPSFLIACNKQDIAMAKSAKLIQQQLEKELNTLRVTRSAAPSTLDSSSTAPAQLGKKGKEFEFSQLPLKVEFLECSAKGGRGDVGSADIQDLEKWLAKIA
B5: Splicing factor, arginine/serine-rich 4 (protein, UniProt Q08170 1-494)
chain: MPRVYIGRLSYQARERDVERFFKGYGKILEVDLKNGYGFVEFDDLRDADDAVYELNGKDLCGERVIVEHARGPRRDGSYGSGRSGYGYRRSGRDKYGPPTRTEYRLIVENLSSRCSWQDLKDYMRQAGEVTYADAHKGRKNEGVIEFVSYSDMKRALEKLDGTEVNGRKIRLVEDKPGSRRRRSYSRSRSHSRSRSRSRHSRKSRSRSGSSKSSHSKSRSRSRSGSRSRSKSRSRSQSRSRSKKEKSRSPSKEKSRSRSHSAGKSRSKSKDQAEEKIQNNDNVGKPKSRSPSRHKSKSKSRSRSQERRVEEEKRGSVSRGRSQEKSLRQSRSRSRSKGGSRSRSRSRSKSKDKRKGRKRSREESRSRSRSRSKSERSRKRGSKRDSKAGSSKKKKKEDTDRSQSRSPSRSVSKEREHAKSESSQREGRGESENAGTNQETRSRSRSNSKSKPNLPSESRSRSKSASKTRSRSKSRSRSASRSPSRSRSRSHSRS
B6: Pyruvate dehydrogenase E1 component subunit beta (protein, UniProt P11177 31-359)
chain: LQVTVRDAINQGMDEELERDEKVFLLGEEVAQYDGAYKVSRGLWKKYGDKRIIDTPISEMGFAGIAVGAAMAGLRPICEFMTFNFSMQAIDQVINSAAKTYYMSGGLQPVPIVFRGPNGASAGVAAQHSQCFAAWYGHCPGLKVVSPWNSEDAKGLIKSAIRDNNPVVVLENELMYGVPFEFPPEAQSKDFLIPIGKAKIERQGTHITVVSHSRPVGHCLEAAAVLSKEGVECEVINMRTIRPMDMETIEASVMKTNHLVTVEGGWPQFGVGAEICARIMEGPAFNFLDAPAVRVTGADVPMPYAKILEDNSIPQVKDIIFAIKKTLNI
B7: Protein tyrosine phosphatase-like protein (PTPLAD1) (protein, UniProt Q9P035 1-362)
chain: MENQVLTPHVYWAQRHRELYLRVELSDVQNPAISITENVLHFKAQGHGAKGDNVYEFHLEFLDLVKPEPVYKLTQRQVNITVQKKVSQWWERLTKQEKRPLFLAPDFDRWLDESDAEMELRAKEEERLNKLRLESEGSPETLTNLRKGYLFMYNLVQFLGFSWIFVNLTVRFCILGKESFYDTFHTVADMMYFCQMLAVVETINAAIGVTTSPVLPSLIQLLGRNFILFIIFGTMEEMQNKAVVFFVFYLWSAIEIFRYSFYMLTCIDMDWKVLTWLRYTLWIPLYPLGCLAEAVSVIQSIPIFNETGRFSFTLPYPVKIKVRFSFFLQIYLIMIFLGLYINFRHLYKQRRRRYGQKKKKIH
B8: T-plastin polypeptide (plastin-3) (protein, UniProt P13797 1-630)
chain: MDEMATTQISKDELDELKEAFAKVDLNSNGFICDYELHELFKEANMPLPGYKVREIIQKLMLDGDRNKDGKISFDEFVYIFQEVKSSDIAKTFRKAINRKEGICALGGTSELSSEGTQHSYSEEEKYAFVNWINKALENDPDCRHVIPMNPNTDDLFKAVGDGIVLCKMINLSVPDTIDERAINKKKLTPFIIQENLNLALNSASAIGCHVVNIGAEDLRAGKPHLVLGLLWQIIKIGLFADIELSRNEALAALLRDGETLEELMKLSPEELLLRWANFHLENSGWQKINNFSADIKDSKAYFHLLNQIAPKGQKEGEPRIDINMSGFNETDDLKRAESMLQQADKLGCRQFVTPADVVSGNPKLNLAFVANLFNKYPALTKPENQDIDWTLLEGETREERTFRNWMNSLGVNPHVNHLYADLQDALVILQLYERIKVPVDWSKVNKPPYPKLGANMKKLENCNYAVELGKHPAKFSLVGIGGQDLNDGNQTLTLALVWQLMRRYTLNVLEDLGDGQKANDDIIVNWVNRTLSEAGKSTSIQSFKDKTISSSLAVVDLIDAIQPGCINYDLVKSGNLTEDDKHNNAKYAVSMARRIGARVYALPEDLVEVKPKMVMTVFACLMGRGMKRV
B9: nuclear factor associated with dsRNA, NFAR-1 90 kDa isoform (protein, UniProt Q12906-2 1-702)
chain: MRPMRIFVNDDRHVMAKHSSVYPTQEELEAVQNMVSHTERALKAVSDWIDEQEKGSSEQAESDNMDVPPEDDSKEGAGEQKTEHMTRTLRGVMRVGLVAKGLLLKGDLDLELVLLCKEKPTTALLDKVADNLAIQLAAVTEDKYEILQSVDDAAIVIKNTKEPPLSLTIHLTSPVVREEMEKVLAGETLSVNDPPDVLDRQKCLAALASLRHAKWFQARANGLKSCVIVIRVLRDLCTRVPTWGPLRGWPLELLCEKSIGTANRPMGAGEALRRVLECLASGIVMPDGSGIYDPCEKEATDAIGHLDRQQREDITQSAQHALRLAAFGQLHKVLGMDPLPSKMPKKPKNENPVDYTVQIPPSTTYAITPMKRPMEEDGEEKSPSKKKKKIQKKEEKAEPPQAMNALMRLNQLKPGLQYKLVSQTGPVHAPIFTMSVEVDGNSFEASGPSKKTAKLHVAVKVLQDMGLPTGAEGRDSSKGEDSAEETEAKPAVVAPAPVVEAVSTPSAAFPSDATAEQGPILTKHGKNPVMELNEKRRGLKYELISETGGSHDKRFVMEVEVDGQKFQGAGSNKKVAKAYAALAALEKLFPDTPLALDANKKKRAPVPVRGGPKFAAKPHNPGFGMGGPMHNEVPPPPNLRGRGRGGSIRGRGRGRGFGGANHGGYMNAGAGYGSYGYGGNSATAGYSDFFTDCYGYHDFGSS
B10: Ribonucleoprotein PTB-binding 1 (protein, UniProt Q8IY67 1-606)
chain: MAADVSVTHRPPLSPKSGAEVEAGDAAERRAPEEELPPLDPEEIRKRLEHTERQFRNRRKILIRGLPGDVTNQEVHDLLSDYELKYCFVDKYKGTAFVTLLNGEQAEAAINAFHQSRLRERELSVQLQPTDALLCVANLPPSLTQQQFEELVRPFGSLERCFLVYSERTGQSKGYGFAEYMKKDSAARAKSDLLGKPLGPRTLYVHWTDAGQLTPALLHSRCLCVDRLPPGFNDVDALCRALSAVHSPTFCQLACGQDGQLKGFAVLEYETAEMAEEAQQQADGLSLGGSHLRVSFCAPGPPGRSMLAALIAAQATALNRGKGLLPEPNILQLLNNLGPSASLQLLLNPLLHGSAGGKQGLLGAPPAMPLLNGPALSTALLQLALQTQGQKKPGILGDSPLGALQPGAQPANPLLGELPAGGGLPPELPPRRGKPPPLLPSVLGPAGGDREALGLGPPAAQLTPPPAPVGLRGSGLRGPLSHFYSGSPTSYFTSGLQAGLKQSHLSKAIGSSPLGSGEGLLGLSPGPNGHSHLLKVRAGGGDMQGWEAPAPQRPLTRPALPSVSRPHWAARNAALPTCCPRPSPAQKAAMWASTPRASAATTRTPT

This assay addresses Staufen1-TAP (UniProt O95793). The assay is described as follows: affinity purification with mass spectrometry; tandem affinity purification of Staufen1-TAP from lysates of stable 293T cells, mock or pNL4-3 transfected; eluates on SDS-PAGE, 23 gel slices, in gel trypsin digestion, LC-MS/MS; FDR less than 1%.
For the molecule B1, the binding result is reported as “binds”.

Take B2: the binding entry was “binds”.

With B3, the binding result is listed as “binds”.

Consider B4, for which the binding result is given as “binds”.

In the case of B5, the binding entry was “binds”.

Consider B6, for which the binding result is “binds”.

Turning to B7, the binding entry is “binds”.

As for B8, the binding result is reported as “binds”.

For the molecule B9, the binding entry is recorded as “binds”.

Consider B10, for which the binding entry was “binds”.
